In PubChem BioAssay AID2685 (National Center for Advancing Translational Sciences (NCATS), 2010) one finds cell number change and AC50 data, which are given here for 35 molecules.

This test is described as follows: qHTS Assay for Lipid Storage Modulators in Drosophila S3 Cells.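 On cell number change: cells counted by Cell Tracker Red CMTPX staining in the red channel.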 The following applies: BODIPY lipid droplet fluorescence, 18-24 h; for cell number change: measured here: cell count max response, cells fed with added oleic acid. In short, it runs like this:
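Laser-scanning cytometry quantifies lipid droplet accumulation (500–530 nm total intensity; droplet/cell object ratio) in oleic acid-fed (400 uM added) Drosophila S3 cells treated with a concentration series. 20 uM Triacsin C defined 100% inhibition.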

Setting [1] is: measured here: lipid fluorescence (Fed channel) AC50, cells fed with added oleic acid.
The mark [2] stands for this setting: measured here: cell number channel AC50, cells fed with added oleic acid.

This is one part of the list. The main result of the screen is listed elsewhere. These columns were measured beside it and carry no call. Most of these compounds were active or inconclusive in the main read-out, so they are no random draw. The note in brackets gives the kind of curve behind each potency; many fits are weak.

With `CC(=O)N1CCc2c(sc(NC(=O)CS(=O)(=O)c3ccc(F)cc3)c2C#N)C1`, the cell number change was found to be 21.5%.

For the molecule `COc1cc(CCCN2C(=S)NC[C@@H]2c2ccccc2)cc(OC)c1OC`, the cell number change came out at 11.8%. Moreover, the concentration at half-maximal activity (AC50) under setting [1] was 9.2 µM [rising, single point].

Regarding `COc1ccccc1NC(=O)c1ccc(-c2ccccc2F)o1`, the cell number change came out at 1.26%. Moreover, the AC50 under setting [1] is 9.2 µM [rising, partial curve].

Turning to `COc1ccc(C2C(C(=O)c3ccc(C)o3)=C(O)C(=O)N2Cc2cccnc2)cc1OC` (configuration not stated), the AC50 under setting [1] was 0.103 µM [falling, full curve, poor fit].

On to `O=C(COC(=O)c1ccc(Cl)c([N+](=O)[O-])c1)Nc1ccccc1OC(F)F`, for which the cell number change is -50%. Also, under setting [2], the half-maximal activity concentration (AC50) is 29.1 µM [falling, partial curve, poor fit].

Take `COc1ccc(C)cc1NC(=O)CSc1ccc(-c2ccco2)nn1`: the cell number change is -11.3%. In addition, the AC50 under setting [2] was 0.103 µM [rising, full curve, poor fit].

As for `Cc1c(Br)c([N+](=O)[O-])nn1CC(=O)NCc1ccccc1`, the cell number change came to 2.37%. Moreover, the concentration at half-maximal activity (AC50) under setting [2] was 0.184 µM [rising, full curve, poor fit]. Moreover, the concentration at half-maximal activity (AC50) under setting [1] is 0.13 µM [rising, full curve, poor fit].

As to `CCn1nc(C(=O)Nc2nc3ccccc3[nH]2)c2ccccc2c1=O`, the cell number change was 16.4%. Moreover, under setting [1], the AC50 is 0.58 µM [rising, partial curve, poor fit].

For the molecule `O=C(CSc1nc(=O)n2ccccc2n1)OCc1ccccc1`, under setting [1], the half-maximal activity concentration (AC50) is 0.366 µM [falling, partial curve].

Turning to `Cc1ccc2c(c1)NC(=O)C(CC(=O)NCCCN1CCCCC1)O2` (configuration not stated), the cell number change was -7.55%. Further, the AC50 under setting [1] was 0.206 µM [falling, full curve].

On to `Cc1ccc2[nH]c3c(c2c1)CN(C(=O)CN1CCN(Cc2ccc4c(c2)OCO4)CC1)CC3`, for which the cell number change was -32.8%. For the same molecule, under setting [2], the AC50 is 32.6 µM [falling, single point].

In the case of `CC(C)(C)n1nnnc1C(c1ccc(C(F)(F)F)cc1)N(Cc1ccccc1)Cc1ccco1` (configuration not stated), the cell number change was -47.6%. In addition, the half-maximal activity concentration (AC50) under setting [2] is 29.1 µM [falling, single point]. Besides, the concentration at half-maximal activity (AC50) under setting [1] is 29.1 µM [falling, single point].

In the case of `Nc1cc2c([N+](=O)[O-])cccc2o1`, the cell number change is 2.08%. The half-maximal activity concentration (AC50) under setting [2] is 0.517 µM [rising, single point].

For `CN(c1ccc(C(=O)Nc2nccs2)cc1)S(=O)(=O)c1ccccc1`, the cell number change was -5.18%. Under setting [2], the AC50 was 0.184 µM [rising, full curve, poor fit]. Moreover, the AC50 under setting [1] was 0.13 µM [rising, full curve, poor fit].

Take `O=C(NC(=S)Nc1ccccc1Cl)c1cnn2c(C(F)(F)F)cc(C(F)(F)F)nc12`: the cell number change was -51.9%. Also, under setting [2], the AC50 is 1.3 µM [falling, partial curve]. The AC50 under setting [1] is 1.3 µM [falling, full curve].

For the molecule `COc1cc(/C=C\C(=O)NCc2ccc3c(c2)cc(C)n3C)cc(OC)c1OC`, the cell number change was 12.6%. The AC50 under setting [1] was 4.11 µM [rising, partial curve, poor fit].

Regarding `CCN1CCCC1CNC(=O)Cn1cc2c(n1)CCC(C)C2` (configuration not stated), the cell number change was -6.51%. In addition, under setting [1], the AC50 is 20.6 µM [falling, single point].

For the molecule `CNS(=O)(=O)c1cccc(C(=O)NCC2CCCCC2)c1`, the cell number change is -2.7%.

Turning to `Cc1cccc2nc(CSc3ccc(Cl)cc3)cn12`, the cell number change is -16%. Further, the AC50 under setting [2] is 6.51 µM [falling, single point]. In addition, under setting [1], the AC50 is 4.11 µM [falling, full curve].

`CCOc1c(CNCc2ccc(C(=O)O)cc2)cccc1OC`: the cell number change was determined as 48.4%. Besides, under setting [2], the half-maximal activity concentration (AC50) is 29.1 µM [rising, single point].

For `S=C(NCCc1ccccc1)NC1CC1`, the concentration at half-maximal activity (AC50) under setting [1] was 1.46 µM [rising, partial curve].

Consider `CCOC(=O)c1oc2nc(C(C)C)c3c(c2c1N)CCC3`, for which the cell number change worked out at 11.9%. Besides, the AC50 under setting [1] was 0.0651 µM [rising, full curve, poor fit].

For `Cc1nnc(NC(=O)CCSc2ccc(Cl)cc2)s1`, the cell number change stood at 0.088%. Also, the concentration at half-maximal activity (AC50) under setting [2] is 0.731 µM [falling, partial curve].

Regarding `O=C(NCC1CCCCC1)C1CCCN(C(=O)NC2CCCCC2)C1` (configuration not stated), the cell number change was -0.209%. In addition, the AC50 under setting [1] is 10.3 µM [rising, single point].

Take `CCCn1c(=N)c(C#N)cc2c(=O)n3cccc(C)c3nc21`: the cell number change was determined as 6.2%. For the same molecule, the half-maximal activity concentration (AC50) under setting [1] is 6.51 µM [rising, partial curve, poor fit].

On to `O=C(Nc1ncn[nH]1)c1ccc(Cl)c(S(=O)(=O)N2CCCCCC2)c1`, for which, under setting [2], the AC50 is 0.0411 µM [rising, single point].

Regarding `COc1cccc(C(C(=O)NC2CCCC2)N(C(=O)c2ccco2)c2ccc(NC(C)=O)cc2)c1OC` (configuration not stated), the cell number change was -7.89%. The AC50 under setting [2] was 0.116 µM [falling, full curve, poor fit]. The concentration at half-maximal activity (AC50) under setting [1] is 7.08 µM [falling, partial curve].

For the molecule `CCOC(=O)c1c(-c2ccccc2)n(C)c2ccc(O)cc12`, the cell number change is 71.9%. Besides, the concentration at half-maximal activity (AC50) under setting [2] is 10.3 µM [rising, partial curve]. Also, under setting [1], the AC50 is 18.4 µM [rising, partial curve].

Consider `COC(CNC(=O)c1ccc2c3c(onc13)-c1ccccc1C2=O)OC`, for which the cell number change was -53.9%. In addition, the AC50 under setting [2] is 16.4 µM [falling, partial curve]. Further, the AC50 under setting [1] is 10.3 µM [falling, partial curve].

With `O=C(/C=C/c1ccc(F)cc1)Nc1ccc2[nH]c(=O)[nH]c2c1`, the cell number change amounted to 2.61%. In addition, the AC50 under setting [2] was 6.51 µM [falling, single point]. In addition, under setting [1], the concentration at half-maximal activity (AC50) is 2.91 µM [falling, partial curve, poor fit].

For `CCOC(=O)C1CCCCN1Cc1cn(C)nc1-c1ccccc1F` (configuration not stated), the cell number change is -25.7%. In addition, the AC50 under setting [1] was 29.1 µM [falling, single point].

As to `CSc1nsc(SC)c1C(=O)N1CCN(S(=O)(=O)c2ccc(C)cc2)C1C(C)C` (configuration not stated), the cell number change is -21.3%. Under setting [1], the concentration at half-maximal activity (AC50) was 29.1 µM [falling, single point].

For `Cc1cc(=O)oc2ccc(OCC(=O)NCc3ccco3)cc12`, under setting [1], the half-maximal activity concentration (AC50) was 4.11 µM [falling, partial curve, poor fit].

With `O=C(Cc1ccccc1)N1CCC(C(=O)N2CCN(c3ccc(F)cc3)CC2)CC1`, the AC50 under setting [2] is 0.651 µM [rising, partial curve] and the concentration at half-maximal activity (AC50) under setting [1] was 0.517 µM [rising, partial curve].

Regarding `CCOCCCNC(=O)c1ccc(N2CC3CC(C2)c2cccc(=O)n2C3)c(NC(=O)Nc2cccc(OC)c2)c1` (configuration not stated), the cell number change was 8.9%. In addition, the half-maximal activity concentration (AC50) under setting [1] is 25.9 µM [rising, partial curve].
